Reference: paper doi:10.1101/2025.01.09.632087
Results are given in words; binding and its absence hold for the method and conditions named. In cells and extracts the contact can be indirect. Some entries that bind do so weakly or less than the wild type. Sequences can lack the tags named with a protein.

Key:
[1] = target: T1, full-length PLD3 with a C-terminal 3xFLAG-tag (PLD3-FLAG) (human) (UniProt Q8IV08); assay: co-IP
T1 sequence: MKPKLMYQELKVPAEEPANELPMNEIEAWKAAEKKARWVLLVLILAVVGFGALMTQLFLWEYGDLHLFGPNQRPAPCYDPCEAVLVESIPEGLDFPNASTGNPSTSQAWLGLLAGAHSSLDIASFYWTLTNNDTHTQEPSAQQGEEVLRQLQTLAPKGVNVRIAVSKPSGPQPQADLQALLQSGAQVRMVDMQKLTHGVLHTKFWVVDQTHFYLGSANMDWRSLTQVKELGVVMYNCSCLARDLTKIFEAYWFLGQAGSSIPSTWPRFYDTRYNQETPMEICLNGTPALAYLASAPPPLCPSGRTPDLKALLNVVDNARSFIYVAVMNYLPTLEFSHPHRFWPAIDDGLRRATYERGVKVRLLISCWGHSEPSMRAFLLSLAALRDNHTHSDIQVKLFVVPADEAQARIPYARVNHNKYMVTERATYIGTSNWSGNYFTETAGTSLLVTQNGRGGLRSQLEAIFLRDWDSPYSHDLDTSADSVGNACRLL

[2] = target: T2, wt FICD with a C-terminal FLAG(3x)-tag (FICD-FLAG) (human) (UniProt Q9BVA6); assay: co-IP
T2 sequence: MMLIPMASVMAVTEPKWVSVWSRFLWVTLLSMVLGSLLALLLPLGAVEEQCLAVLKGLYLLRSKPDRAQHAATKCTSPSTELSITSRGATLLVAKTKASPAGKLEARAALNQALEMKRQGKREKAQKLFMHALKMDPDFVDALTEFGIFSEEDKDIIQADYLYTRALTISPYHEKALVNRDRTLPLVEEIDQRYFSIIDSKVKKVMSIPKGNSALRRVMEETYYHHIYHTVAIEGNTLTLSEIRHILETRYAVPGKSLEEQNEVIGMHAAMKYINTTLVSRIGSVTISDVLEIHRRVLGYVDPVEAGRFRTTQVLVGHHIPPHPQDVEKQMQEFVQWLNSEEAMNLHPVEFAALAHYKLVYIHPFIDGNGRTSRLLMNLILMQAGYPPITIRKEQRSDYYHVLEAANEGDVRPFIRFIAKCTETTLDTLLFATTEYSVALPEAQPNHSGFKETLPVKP

B1: wt FICD (protein adenylyltransferase FICD, without affinity tag) (enzyme, UniProt Q9BVA6 1-458)
chain: MMLIPMASVMAVTEPKWVSVWSRFLWVTLLSMVLGSLLALLLPLGAVEEQCLAVLKGLYLLRSKPDRAQHAATKCTSPSTELSITSRGATLLVAKTKASPAGKLEARAALNQALEMKRQGKREKAQKLFMHALKMDPDFVDALTEFGIFSEEDKDIIQADYLYTRALTISPYHEKALVNRDRTLPLVEEIDQRYFSIIDSKVKKVMSIPKGNSALRRVMEETYYHHIYHTVAIEGNTLTLSEIRHILETRYAVPGKSLEEQNEVIGMHAAMKYINTTLVSRIGSVTISDVLEIHRRVLGYVDPVEAGRFRTTQVLVGHHIPPHPQDVEKQMQEFVQWLNSEEAMNLHPVEFAALAHYKLVYIHPFIDGNGRTSRLLMNLILMQAGYPPITIRKEQRSDYYHVLEAANEGDVRPFIRFIAKCTETTLDTLLFATTEYSVALPEAQPNHSGFKETLPVKP
Question: Which binding [1] does the source give for B1 here?
Answer: binds

B2: wt PLD3 (without an affinity tag) (enzyme, UniProt Q8IV08 1-490)
chain: MKPKLMYQELKVPAEEPANELPMNEIEAWKAAEKKARWVLLVLILAVVGFGALMTQLFLWEYGDLHLFGPNQRPAPCYDPCEAVLVESIPEGLDFPNASTGNPSTSQAWLGLLAGAHSSLDIASFYWTLTNNDTHTQEPSAQQGEEVLRQLQTLAPKGVNVRIAVSKPSGPQPQADLQALLQSGAQVRMVDMQKLTHGVLHTKFWVVDQTHFYLGSANMDWRSLTQVKELGVVMYNCSCLARDLTKIFEAYWFLGQAGSSIPSTWPRFYDTRYNQETPMEICLNGTPALAYLASAPPPLCPSGRTPDLKALLNVVDNARSFIYVAVMNYLPTLEFSHPHRFWPAIDDGLRRATYERGVKVRLLISCWGHSEPSMRAFLLSLAALRDNHTHSDIQVKLFVVPADEAQARIPYARVNHNKYMVTERATYIGTSNWSGNYFTETAGTSLLVTQNGRGGLRSQLEAIFLRDWDSPYSHDLDTSADSVGNACRLL
Question: How did the binding [2] turn out when B2 was run?
Answer: binds
